# Experimental data taken from the supplement of paper PMC4604168 (melanoma cell lines).
# The list shows a part of the results. Repeats are few or missing, and single values can be far off.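 Imaging used 1,536-well plates; nuclei positive for cleaved PARP by antibody were divided by total DNA-stained nuclei to yield the apoptosis fraction. Doses for screening kept most cells viable, and cell lines differ markedly in resting and induced cleaved-PARP levels.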
# Experiments:
# Test in all cases: cleaved PARP positive nuclei fraction relative to DMSO control; melanoma cells; higher = more apoptosis
# Conditions in all cases: library dose: low library concentration; 72 h
# 501Mel = system: 501Mel
# A101D = system: A101D
# A2058 = system: A2058
# A375 = system: A375
# C32 = system: C32
# CBRC008 = system: CBRC008 (line from a melanoma biopsy)
# CBRC014 = system: CBRC014 (line from a melanoma biopsy)
# CBRC016 = system: CBRC016 (line from a melanoma biopsy)
# CBRC017 = system: CBRC017 (line from a melanoma biopsy)
# CBRC034 = system: CBRC034 (line from a melanoma biopsy)
# COLO792 = system: COLO792
# COLO800 = system: COLO800
# COLO829 = system: COLO829
# G361 = system: G361
# IPC-298 = system: IPC-298
# IST-MEL1 = system: IST-MEL1
# LB2518-MEL = system: LB2518-MEL
# LOXIMVI = system: LOXIMVI
# MEL-HO = system: MEL-HO
SMILES,cleaved PARP positive nuclei fraction (501Mel),cleaved PARP positive nuclei fraction (A101D),cleaved PARP positive nuclei fraction (A2058),cleaved PARP positive nuclei fraction (A375),cleaved PARP positive nuclei fraction (C32),cleaved PARP positive nuclei fraction (CBRC008),cleaved PARP positive nuclei fraction (CBRC014),cleaved PARP positive nuclei fraction (CBRC016),cleaved PARP positive nuclei fraction (CBRC017),cleaved PARP positive nuclei fraction (CBRC034),cleaved PARP positive nuclei fraction (COLO792),cleaved PARP positive nuclei fraction (COLO800),cleaved PARP positive nuclei fraction (COLO829),cleaved PARP positive nuclei fraction (G361),cleaved PARP positive nuclei fraction (IPC-298),cleaved PARP positive nuclei fraction (IST-MEL1),cleaved PARP positive nuclei fraction (LB2518-MEL),cleaved PARP positive nuclei fraction (LOXIMVI),cleaved PARP positive nuclei fraction (MEL-HO)
"CS(=O)(=O)c1ccc(C(=O)Nc2ccc(Cl)c(-c3ccccn3)c2)c(Cl)c1 [vismodegib] + Cn1c(Nc2ccc(C(F)(F)F)cc2)nc2cc(Oc3ccnc(-c4ncc(C(F)(F)F)[nH]4)c3)ccc21 [CHIR265] (first compound 1 µM, partner dose 0.08 µM)",1530%,419%,110%,242%,80%,153%,102%,104%,138%,229%,112%,221%,111%,94.9%,35.6%,70.4%,87.8%,158%,38.8%
"COc1ccc(C2=N[C@@H](c3ccc(Cl)cc3)[C@@H](c3ccc(Cl)cc3)N2C(=O)N2CCNC(=O)C2)c(OC(C)C)c1 [Nutlin-3] + CC(=O)c1c(C)c2cnc(Nc3ccc(N4CCNCC4)cn3)nc2n(C2CCCC2)c1=O [palbociclib] (first compound 0.1 µM, partner dose 0.04 µM)",104%,88.5%,117%,198%,88.5%,77.9%,115%,137%,109%,66%,191%,78.9%,68.9%,111%,48.1%,156%,137%,164%,39.8%
"CC(=O)O[C@@]12CO[C@@H]1C[C@H](O)[C@@]1(C)C(=O)[C@H](O)C3=C(C)[C@@H](OC(=O)[C@H](O)[C@@H](NC(=O)OC(C)(C)C)c4ccccc4)C[C@@](O)([C@@H](OC(=O)c4ccccc4)[C@H]21)C3(C)C [Docetaxel] + Cn1c(=O)n(-c2ccc(C(C)(C)C#N)cc2)c2c3cc(-c4cnc5ccccc5c4)ccc3ncc21 [NVP-BEZ235] (first compound 0.0001 µM, partner dose 0.004 µM)",365%,153%,343%,1290%,106%,328%,151%,134%,233%,34.9%,534%,116%,184%,896%,196%,474%,295%,221%,231%
"CC1(C)CCC(c2ccc(Cl)cc2)=C(CN2CCN(c3ccc(C(=O)NS(=O)(=O)c4ccc(N[C@H](CCN5CCOCC5)CSc5ccccc5)c(S(=O)(=O)C(F)(F)F)c4)cc3)CC2)C1 + COc1ccc(Cl)c(Nc2nc3ccccc3nc2NS(=O)(=O)c2cccc(NC(=O)C(C)(C)N)c2)c1 [XL147] (first compound 0.4 µM, partner dose 0.8 µM)",100%,84.8%,128%,608%,364%,512%,509%,1250%,325%,248%,545%,109%,39.2%,201%,134%,131%,223%,183%,74%
"C[C@@H](N)c1ccc(C(=O)Nc2ccnc3[nH]ccc23)cc1 + CC(C)C[C@H](NC(=O)[C@H](Cc1ccccc1)NC(=O)c1cnccn1)B(O)O [Bortezomib] (first compound 0.4 µM, partner dose 0.001 µM)",457%,306%,131%,54%,76.7%,553%,295%,209%,278%,210%,160%,86.2%,80%,879%,48.3%,137%,203%,287%,71.8%
"CS(=O)(=O)c1ccc(C(=O)Nc2ccc(Cl)c(-c3ccccn3)c2)c(Cl)c1 [vismodegib] + CC(=O)c1c(C)c2cnc(Nc3ccc(N4CCNCC4)cn3)nc2n(C2CCCC2)c1=O [palbociclib] (first compound 1 µM, partner dose 0.04 µM)",157%,318%,106%,284%,85.8%,92.2%,121%,36.9%,133%,34.9%,120%,71.9%,86%,162%,92.9%,66.1%,253%,30.7%,141%
"CN(c1ncccc1CNc1nc(Nc2ccc3c(c2)CC(=O)N3)ncc1C(F)(F)F)S(C)(=O)=O + CS(=O)(=O)CCNCc1ccc(-c2ccc3ncnc(Nc4ccc(OCc5cccc(F)c5)c(Cl)c4)c3c2)o1 [lapatinib] (first compound 0.08 µM, partner dose 0.8 µM)",120%,27.1%,207%,340%,312%,162%,198%,56%,90%,289%,104%,136%,61.8%,158%,279%,129%,49.3%,156%,123%
"Cn1cnc2c(F)c(Nc3ccc(Br)cc3Cl)c(C(=O)NOCCO)cc21 [selumetinib] + CCCS(=O)(=O)Nc1ccc(F)c(C(=O)c2c[nH]c3ncc(Cl)cc23)c1F [PLX4720] (first compound 0.015 µM, partner dose 0.08 µM)",261%,119%,109%,362%,89.8%,118%,238%,83.4%,130%,149%,101%,248%,45.8%,121%,92.1%,64%,148%,47.1%,180%
"COc1ccc(C2=N[C@@H](c3ccc(Cl)cc3)[C@@H](c3ccc(Cl)cc3)N2C(=O)N2CCNC(=O)C2)c(OC(C)C)c1 [Nutlin-3] + O=C(O)c1ccc2c(c1)nc(Nc1cccc(Cl)c1)c1ccncc12 [CX4945] (first compound 0.1 µM, partner dose 0.4 µM)",85.8%,177%,343%,103%,167%,145%,117%,61.6%,154%,143%,122%,85.2%,107%,90%,42.7%,40.7%,126%,265%,70.4%
"CCN(CC)CCNC(=O)c1c(C)[nH]c(/C=C2\C(=O)Nc3ccc(F)cc32)c1C [sunitinib] + CCCS(=O)(=O)Nc1ccc(F)c(C(=O)c2c[nH]c3ncc(Cl)cc23)c1F [PLX4720] (first compound 0.4 µM, partner dose 0.08 µM)",204%,146%,138%,149%,101%,35.5%,95%,248%,93.7%,66.8%,61.8%,240%,74.4%,107%,87.4%,68.7%,306%,135%,38.4%
"CCN(CC)CCNC(=O)c1c(C)[nH]c(/C=C2\C(=O)Nc3ccc(F)cc32)c1C [sunitinib] + Nc1ncn([C@H]2C[C@H](O)[C@@H](CO)O2)c(=O)n1 [decitabine] (first compound 0.4 µM, partner dose 0.1 µM)",109%,121%,292%,261%,93.7%,180%,117%,109%,237%,66.4%,192%,152%,137%,193%,175%,98.5%,107%,210%,92.5%
"CN(c1ncccc1CNc1nc(Nc2ccc3c(c2)CC(=O)N3)ncc1C(F)(F)F)S(C)(=O)=O + Cn1nnc2c(C(N)=O)ncn2c1=O [temozolomide] (first compound 0.08 µM, partner dose 2 µM)",133%,94.7%,138%,87.4%,90.3%,101%,124%,92.9%,91.1%,81.5%,137%,60.6%,124%,80.6%,136%,285%,123%,176%,211%
"C[C@@H](N)c1ccc(C(=O)Nc2ccnc3[nH]ccc23)cc1 + Clc1ccc(Nc2nnc(Cc3ccncc3)c3ccccc23)cc1 [vatalanib] (first compound 0.4 µM, partner dose 2 µM)",59.9%,198%,162%,185%,101%,87.4%,113%,99.7%,90.4%,261%,95.6%,225%,74.9%,125%,45.6%,39.8%,138%,181%,247%
"CCCCCCCCc1ccc(CCC(N)(CO)CO)cc1 [fingolimod] + CC(=O)c1c(C)c2cnc(Nc3ccc(N4CCNCC4)cn3)nc2n(C2CCCC2)c1=O [palbociclib] (first compound 2 µM, partner dose 0.04 µM)",233%,114%,55.6%,494%,91.7%,53.7%,113%,16700%,162%,37.2%,121%,81.3%,37.9%,142%,91.3%,210%,238%,120%,134%
"CCN(CC)CCNC(=O)c1c(C)[nH]c(/C=C2\C(=O)Nc3ccc(F)cc32)c1C [sunitinib] + C=C(c1ccc(C(=O)O)cc1)c1cc2c(cc1C)C(C)(C)CCC2(C)C [Bexarotene] (first compound 0.4 µM, partner dose 2 µM)",120%,63.2%,203%,87.4%,80.9%,92.9%,103%,198%,124%,114%,91.2%,227%,95.1%,136%,51.9%,246%,188%,55.1%,165%
"CS(=O)(=O)c1ccc(C(=O)Nc2ccc(Cl)c(-c3ccccn3)c2)c(Cl)c1 [vismodegib] + Nc1ncn([C@H]2C[C@H](O)[C@@H](CO)O2)c(=O)n1 [decitabine] (first compound 1 µM, partner dose 0.1 µM)",83%,188%,57.1%,100%,143%,162%,98.4%,148%,86.3%,125%,77.8%,83.2%,101%,95.2%,258%,207%,128%,38.3%,99.7%

# Reformatted: entries from further up.
SMILES | cleaved PARP positive nuclei fraction (501Mel) | cleaved PARP positive nuclei fraction (A101D) | cleaved PARP positive nuclei fraction (A2058) | cleaved PARP positive nuclei fraction (A375) | cleaved PARP positive nuclei fraction (C32) | cleaved PARP positive nuclei fraction (CBRC008) | cleaved PARP positive nuclei fraction (CBRC014) | cleaved PARP positive nuclei fraction (CBRC016) | cleaved PARP positive nuclei fraction (CBRC017) | cleaved PARP positive nuclei fraction (CBRC034) | cleaved PARP positive nuclei fraction (COLO792) | cleaved PARP positive nuclei fraction (COLO800) | cleaved PARP positive nuclei fraction (COLO829) | cleaved PARP positive nuclei fraction (G361) | cleaved PARP positive nuclei fraction (IPC-298) | cleaved PARP positive nuclei fraction (IST-MEL1) | cleaved PARP positive nuclei fraction (LB2518-MEL) | cleaved PARP positive nuclei fraction (LOXIMVI) | cleaved PARP positive nuclei fraction (MEL-HO)
CCN(CC)CCNC(=O)c1c(C)[nH]c(/C=C2\C(=O)Nc3ccc(F)cc32)c1C [sunitinib] + CCCS(=O)(=O)Nc1ccc(F)c(C(=O)c2c[nH]c3ncc(Cl)cc23)c1F [PLX4720] (first compound 0.4 µM, partner dose 0.08 µM) | 204% | 146% | 138% | 149% | 101% | 35.5% | 95% | 248% | 93.7% | 66.8% | 61.8% | 240% | 74.4% | 107% | 87.4% | 68.7% | 306% | 135% | 38.4%
CCN(CC)CCNC(=O)c1c(C)[nH]c(/C=C2\C(=O)Nc3ccc(F)cc32)c1C [sunitinib] + Nc1ncn([C@H]2C[C@H](O)[C@@H](CO)O2)c(=O)n1 [decitabine] (first compound 0.4 µM, partner dose 0.1 µM) | 109% | 121% | 292% | 261% | 93.7% | 180% | 117% | 109% | 237% | 66.4% | 192% | 152% | 137% | 193% | 175% | 98.5% | 107% | 210% | 92.5%
